Values quoted from earlier work, collected in paper PMC10873626, “Acceleration of infectious disease drug discovery and development using a humanized model of drug metabolism” (Proceedings of the National Academy of Sciences of the …, 2024).

Test system: CYP
Conditions: cited from earlier work

O=C(O)c1cn(C2CC2)c2cc(N3CCNCC3)c(F)cc2c1=O [Ciprofloxacin]
CYP interaction: Inhibitor: 1A2, 2D6
